These are yes or no findings as the source states them, for the method shown. In cells and extracts the contact can be indirect.
Biological target: heat shock protein 25 (HSP25), mouse (mouse) (UniProt P14602)
Assay: co-IP

Amino acid sequences for entries named in this document (tags omitted).
UniProt P14602: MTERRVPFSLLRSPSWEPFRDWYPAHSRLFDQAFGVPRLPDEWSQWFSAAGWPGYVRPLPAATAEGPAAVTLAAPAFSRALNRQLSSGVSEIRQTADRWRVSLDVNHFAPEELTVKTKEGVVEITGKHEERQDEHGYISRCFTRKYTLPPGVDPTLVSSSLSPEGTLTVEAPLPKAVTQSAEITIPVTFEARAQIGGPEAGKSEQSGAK

B1: ETS1, mouse (protein, UniProt P27577 1-440)
chain: MKAAVDLKPTLTIIKTEKVDLELFPSPDMECADVPLLTPSSKEMMSQALKATFSGFTKEQQRLGIPKDPRQWTETHVRDWVMWAVNEFSLKGVDFQKFCMSGAALCALGKECFLELAPDFVGDILWEHLEILQKEDVKPYQVNGANPTYPESCYTSDYFISYGIEHAQCVPPSEFSEPSFITESYQTLHPISSEELLSLKYENDYPSVILQDPLQTDTLQTDYFAIKQEVLTPDNMCLGRASRGKLGGQDSFESVESYDSCDRLTQSWSSQSSFNSLQRVPSYDSFDYEDYPAALPNHKPKGTFKDYVRDRADLNKDKPVIPAAALAGYTGSGPIQLWQFLLELLTDKSCQSFISWTGDGWEFKLSDPDEVARRWGKRKNKPKMNYEKLSRGLRYYYDKNIIHKTAGKRYVYRFVCDLQSLLGYTPEELHAMLDVKPDAD
  binding: no binding

Reference: PMC6802665
